The target of assay [1] is ACTPK1 fused to the GAL4 DNA-binding domain (rice). Nature of the assay: two-hybrid.
Another assay addresses ACTPK1-nYFP (rice). Description: split reporter.
Assay [2] deals with Flag-tagged ACTPK1 (pCAMBIA1300-35S-Flag-ACTPK1) (rice). Description: co-IP.

Data on three molecules can be found in doi:10.1101/2025.11.22.689956.

No constants are given. Whether binding was seen depends on the method and setting. Binding calls can cover weak binding; strength is not graded here. Sequences can lack the tags named with a protein. For part of these data: In cells and extracts the contact can be indirect.

B1: MPK3 fused to the GAL4 activation domain (enzyme, UniProt Q10N20 1-369)
chain: MDGAPVAEFRPTMTHGGRYLLYDIFGNKFEVTNKYQPPIMPIGRGAYGIVCSVMNFETREMVAIKKIANAFNNDMDAKRTLREIKLLRHLDHENIIGIRDVIPPPIPQAFNDVYIATELMDTDLHHIIRSNQELSEEHCQYFLYQILRGLKYIHSANVIHRDLKPSNLLLNANCDLKICDFGLARPSSESDMMTEYVVTRWYRAPELLLNSTDYSAAIDVWSVGCIFMELINRQPLFPGRDHMHQMRLITEVIGTPTDDELGFIRNEDARKYMRHLPQYPRRTFASMFPRVQPAALDLIERMLTFNPLQRITVEEALDHPYLERLHDIADEPICLEPFSFDFEQKALNEDQMKQLIFNEAIEMNPNIRY
Turning to B1, the binding result in assay [1] is reported as “binds”.

B2: MPK3-cYFP (enzyme, UniProt Q10N20 1-369)
chain: MDGAPVAEFRPTMTHGGRYLLYDIFGNKFEVTNKYQPPIMPIGRGAYGIVCSVMNFETREMVAIKKIANAFNNDMDAKRTLREIKLLRHLDHENIIGIRDVIPPPIPQAFNDVYIATELMDTDLHHIIRSNQELSEEHCQYFLYQILRGLKYIHSANVIHRDLKPSNLLLNANCDLKICDFGLARPSSESDMMTEYVVTRWYRAPELLLNSTDYSAAIDVWSVGCIFMELINRQPLFPGRDHMHQMRLITEVIGTPTDDELGFIRNEDARKYMRHLPQYPRRTFASMFPRVQPAALDLIERMLTFNPLQRITVEEALDHPYLERLHDIADEPICLEPFSFDFEQKALNEDQMKQLIFNEAIEMNPNIRY
Take B2: the binding entry in the assay with ACTPK1-nYFP (rice) is reported as “binds”.

B3: GFP-tagged MPK3 (MPK3-pGWB5) (enzyme, UniProt Q10N20 1-369)
chain: MDGAPVAEFRPTMTHGGRYLLYDIFGNKFEVTNKYQPPIMPIGRGAYGIVCSVMNFETREMVAIKKIANAFNNDMDAKRTLREIKLLRHLDHENIIGIRDVIPPPIPQAFNDVYIATELMDTDLHHIIRSNQELSEEHCQYFLYQILRGLKYIHSANVIHRDLKPSNLLLNANCDLKICDFGLARPSSESDMMTEYVVTRWYRAPELLLNSTDYSAAIDVWSVGCIFMELINRQPLFPGRDHMHQMRLITEVIGTPTDDELGFIRNEDARKYMRHLPQYPRRTFASMFPRVQPAALDLIERMLTFNPLQRITVEEALDHPYLERLHDIADEPICLEPFSFDFEQKALNEDQMKQLIFNEAIEMNPNIRY
B3: in assay [2], the binding result is reported as “binds”.
